Experiment [1] has as its target Bcl-2 nineteen kilodalton interacting protein 3 (rat) (rat (endogenous in LV myocardium and adult cardiac myocytes)). The experiment can be described thus: co-IP; 250 ug lysate of normal rat adult cardiac myocytes (n = 3) with 5 ug mouse monoclonal BNIP3 antibody (Abcam ab10433), Dynabeads Protein G; western blot. In general terms: Immunoblotting shows a protein as a band on a membrane.

Experiment [2] has the same target. The experiment can be described thus: co-IP; 250 ug lysate of rat LV myocardium, Sham (n = 3) and pressure overload HFrEF (n = 3), with 5 ug mouse monoclonal BNIP3 antibody (Abcam ab10433), Dynabeads Protein G; western blot.

No constants are given. Whether binding was seen depends on the method and setting. Binding seen in cells or lysates may run through a third protein. Binding can be weak; no strength is given.

B1: mt-proton/calcium exchanger protein LETM1 (rat) (protein, UniProt Q5XIN6 115-739)
chain: EDSMIEKSLKSLKDKNKKLEEGGPVYSPPAQVVVKKSLGQKILDELKHYYHGFRLLWIDTKIAARMLWRILNGHTLTRRERRQFLRICADLFRLVPFLVFVVVPFMEFLLPVVVKLFPNMLPSTFETQSIKEERLKKELRVKLELAKFLQDTIEEMALKNKAAKGNATKDFSAFFQKIRETGERPSNEEIMRFSKLFEDELTLDNLTRPQLVALCKLLELQSIGTNNFLRFQLTMRLRSIKADDKLISEEGVDSLTVKELQAACRARGMRALGVTEDRLKGQLKQWLDLHLYHEIPTSLLILSRAMYLPDTLSPADQLKSTLQTLPEIVAKEAQVKAAEVEGEQVDNKAKLEATLQEEAAIQQEHLEELKRAAETAKDIQPEVAEATVPGRPGAELQPKMVDVIPPSEILKDTAPVLEGLKGEEITKEEIDILSDACSKLKEQKKSLTKEKEELELLKEDVQDYSEDLQEIKKELSKTGDEKYIEESTASKRLSKRVQQMIGQIDGLITQLETTQQNGKLDPAAASSPTGESVISVDELISAMKQIKHIPEHKLISLTSALDENKDGNINIDDLVKVIDLVNKEDVQISTTQVAEIVATLEKEEKVEEKEKAKEKAEKEAAEVKN
For B1, the binding entry in experiment [1] and in experiment [2] was “binds” in each case.

Source of the values: paper PMC9105187.
